In patent publication US12496308B2:
Where a name gives a salt, the structure may show the parent alone. Some of these results come from one statement about several compounds together.

Test: Stability and pH of aqueous solutions
Format: physicochemical
Settings: solutions over 12 hrs
Protocol: Water is added and the mixture is stirred or sonicated. Yields 10 mg/ml to 20 mg/ml solutions stable for at least 24 hrs.

| Structure (SMILES) | phenol in solutions |
| --- | --- |
| O=C(Nc1cc(C(F)(F)F)cc(C(F)(F)F)c1)c1cc(Cl)ccc1OP(=O)([O-])[O-].[Na+].[Na+] [Compound 5] | less than 1% |
| O=C(Nc1cc(C(F)(F)F)cc(C(F)(F)F)c1)c1cc(Cl)ccc1OP(=O)(O)O [bis ethanolamine salt] | less than 1% |
| O=C(Nc1cc(C(F)(F)F)cc(C(F)(F)F)c1)c1cc(Cl)ccc1OP(=O)([O-])O.[Na+] [mono sodium salt] | less than 1% |
